# Test results: PubChem BioAssay AID504834 (National Center for Advancing Translational Sciences (NCATS), 2011)
# Hit rate of the full screen: of about 320,000 compounds, about 22,000 (6.9%) were called active. The shares of active, inactive and inconclusive entries below differ from those in the screen. The call rests on the fitted dose curve; in most records, active means well fitted inhibition curve with a large enough effect; inconclusive means small, poorly fitted or top-dose-only effect, or another doubt; inactive means no such curve, though single readings can be large or run the other way. A potency beside an inconclusive call is a rough fit, not a confirmed value.
# Assay: Primary qHTS for delayed death inhibitors of the malarial parasite plastid, 96 hour incubation
# Conditions: P. falciparum luciferase reporter growth; series mostly up to 28.7 µM
# Method in brief: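 Plates of compound plus infected erythrocytes (2% hematocrit, 0.05% parasitemia final) incubate 96 hours, 37 C, 5% CO2. Detection reagent added; reduced luminescence from the parasites' luciferase reporter flags inhibition.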
# Potency means the concentration at half of the fitted maximal effect.
row,Structure (SMILES),Potency
1,CCN(CC)C(=O)c1cc(Cl)ccc1NC(=O)c1ccco1,inactive
2,CCN(CC)c1ccc(NC(=O)COc2ccccc2C)cc1S(=O)(=O)Nc1ccccc1OC,"inconclusive: 0.928 µM [inhibitor, full curve, poor fit]"
3,O=C(N/N=C\c1ccncc1)c1ccccc1O,inactive
4,CC(C)(C)NC(=O)CON=C1c2ccccc2-c2ccccc21,"inconclusive: 18.5 µM [inhibitor, single point]"
5,CC(=O)Nc1ccc(S(=O)(=O)C(C#N)c2nc3ccccc3nc2NCCO)cc1 (configuration not stated),"inconclusive: 5.86 µM [inhibitor, partial curve, poor fit]"
6,O=C(c1ccccc1F)N1CCCc2ccccc21,"inconclusive: 16.5 µM [inhibitor, partial curve, poor fit]"
7,COc1ccc(C(=O)N2CCCC(Nc3ccc(C)c(C)c3)C2)cc1 (configuration not stated),inactive
8,COC(=O)c1ccccc1NC(=O)c1ccc(COc2ccccc2)o1,inactive
9,Cc1cc2n(n1)SC(Nc1cccc3ccccc13)N2 (configuration not stated),inactive
10,CC(/C=N/Nc1nnc2c(n1)[nH]c1ccccc12)=C\c1ccco1,"inconclusive: 11.7 µM [inhibitor, single point]"
11,CCn1cc(C(=O)O)c(=O)c2cc(F)c(N3CCN(C(=S)NC(=O)c4ccc(OC)cc4)CC3)cc21,"inconclusive: 2.62 µM [inhibitor, single point]"
12,Cc1cc(O)cc(C)c1NS(=O)(=O)c1ccc2ccccc2c1,"inconclusive: 11.7 µM [inhibitor, single point]"
13,COc1ccccc1NC(=O)CN1CCN(C(=O)C2CCCO2)CC1 (configuration not stated),inactive
14,CCn1cc([N+](=O)[O-])c(C(=O)Nc2ccc(Cn3nc(C)cc3C)cc2)n1,"inconclusive: 10.4 µM [inhibitor, single point]"
15,O=C(CSc1ncnc2ccccc12)Nc1cc(S(=O)(=O)N2CCCCC2)ccc1Cl,"inconclusive: 14.7 µM [inhibitor, partial curve, poor fit]"
16,CC(=O)O/N=C(\N)Cc1ccc(-c2csnn2)cc1,inactive
17,CSC1=NC(C(Cl)(Cl)Cl)N=C(c2ccccc2)N1 (configuration not stated),inactive
18,CCSc1ccc([C@@H]2[C@@H]3C(=O)N(CC)C(=O)[C@@H]3[C@]3(C(=O)OC)CCCCN23)cc1OC,"inconclusive: 18.5 µM [inhibitor, single point]"
19,COc1ccccc1/C=C/c1nc(S(=O)(=O)c2ccccc2)c(N2CCC(C(N)=O)CC2)o1,"inconclusive: 1.85 µM [inhibitor, full curve, poor fit]"
20,O=C(O)c1c(NC(=O)N2CCOCC2)sc2c1CCCC2,inactive
21,CC(C)CN(C(=O)COC(=O)c1ccc2ccccc2c1)c1c(N)n(Cc2ccccc2)c(=O)[nH]c1=O,"inconclusive: 13.1 µM [inhibitor, single point]"
22,C/C(=N\NC(=O)c1ccc(N2CCCC2=O)cc1)c1ccc(O)cc1O,inactive
23,O=C1Nc2ccc(Br)cc2C1Cc1ccccc1F (configuration not stated),"inconclusive: 18.5 µM [inhibitor, single point]"

row,Structure (SMILES),Potency
1,CCN1CCCC1CNC(=O)c1ccc2c(c1)N(Cc1ccccc1F)C(=O)c1ccccc1S2(=O)=O (configuration not stated),inactive
2,CCN(CC)S(=O)(=O)c1ccc(NN=C(C#N)C#N)cc1,"inconclusive: 8.28 µM [inhibitor, partial curve, poor fit]"
3,O=c1[nH]c(N2CCCCC2)nc2ncn(Cc3ccccc3)c12,"inconclusive: 7.38 µM [inhibitor, partial curve]"
4,Cc1ccc(C(=O)NCCc2ccccn2)cc1S(=O)(=O)N1CCOCC1,"inconclusive: 13.1 µM [inhibitor, single point]"
5,CCOC(=O)c1cn(Cc2ccc(Cl)cc2Cl)c2cc(C)nn2c1=O,"inconclusive: 11.7 µM [inhibitor, partial curve, poor fit]"
6,CCCOc1ccc(Br)cc1CSC(=N)N,"inconclusive: 6.57 µM [inhibitor, partial curve, poor fit]"
7,CC1CCN(CC(=O)N2CCCc3c2c(=O)oc2ccc(OCc4ccccc4)cc32)CC1,"inconclusive: 1.85 µM [inhibitor, partial curve, poor fit]"
8,COC(=O)/C=C1/N/C(=N\c2nc(C)cc(C)n2)N(c2ccccc2)C1=O,inactive
9,C=C(C)c1nc(N)nc(N)n1,"inconclusive: 2.62 µM [inhibitor, full curve, poor fit]"
10,Cc1ccc(S(=O)(=O)Nc2cc(C(F)(F)F)ccc2N2CCOCC2)c(C)c1,active: 11.7 µM
11,COc1cccc(CN2CCN(C(=O)c3ccco3)CC2)c1,active: 0.828 µM
12,CN(C)S(=O)(=O)c1ccc(Cl)c(NC(=O)CN2CCN(c3ccccn3)CC2)c1,"inconclusive: 6.57 µM [inhibitor, partial curve]"
13,O=C(CSCc1c(Cl)cccc1Cl)Nc1ccccc1-c1ccccc1,"inconclusive: 18.5 µM [inhibitor, single point]"
14,CC1c2cc3c(cc2CCN1CC(=O)Nc1ccccc1)OCCCO3 (configuration not stated),"inconclusive: 14.7 µM [inhibitor, single point]"
15,COc1ccc(S(=O)(=O)n2nc(-c3ccc(Cl)cc3)cc2N)cc1OC,"inconclusive: 18.5 µM [inhibitor, partial curve, poor fit]"
16,O=C(CSc1nc(-c2ccc(Cl)cc2)cs1)Nc1cccc([N+](=O)[O-])c1,"inconclusive: 11.7 µM [inhibitor, single point]"
17,O=S(=O)(c1ccc(F)cc1)N1CCN(c2ccccc2)CC1,"inconclusive: 8.28 µM [inhibitor, single point]"
18,Cc1onc(-c2c(Cl)cccc2Cl)c1C(=O)N(C)Cc1ccccc1,"inconclusive: 18.5 µM [inhibitor, single point]"
19,OC(COC1CCCCC1)CN1CCCCC1 (configuration not stated),"inconclusive: 13.1 µM [inhibitor, partial curve, poor fit]"
20,CCOC(=O)N/N=C(/C)c1ccc([N+](=O)[O-])o1,"inconclusive: 9.28 µM [inhibitor, single point]"
21,CC(C)(C)N(C(=O)Cn1nnc(-c2ccc(F)cc2)n1)C(C(=O)NC1CCCC1)c1ccncc1 (configuration not stated),active: 8.28 µM
22,N=c1n(CCN2CCCCC2)c2ccccc2n1CC(O)c1ccc(Cl)c(Cl)c1 (configuration not stated),active: 0.294 µM
23,CC1CCN(CCCNC(=O)c2ccc(CSCc3cccc(Cl)c3)o2)CC1,"inconclusive: 18.5 µM [inhibitor, single point]"

# Filtered by structure: those above with an NH in an aromatic ring
row,Structure (SMILES),Potency
10,CC(/C=N/Nc1nnc2c(n1)[nH]c1ccccc12)=C\c1ccco1,"inconclusive: 11.7 µM [inhibitor, single point]"
21,CC(C)CN(C(=O)COC(=O)c1ccc2ccccc2c1)c1c(N)n(Cc2ccccc2)c(=O)[nH]c1=O,"inconclusive: 13.1 µM [inhibitor, single point]"
3,O=c1[nH]c(N2CCCCC2)nc2ncn(Cc3ccccc3)c12,"inconclusive: 7.38 µM [inhibitor, partial curve]"

# The list continues:

row,Structure (SMILES),Potency
1,COc1nnc(OC)c2ccccc12,active: 0.465 µM
2,CCCN(CCC)CC(O)CN(c1cc([N+](=O)[O-])ccc1OC)S(=O)(=O)c1ccccc1 (configuration not stated),"inconclusive: 10.4 µM [inhibitor, partial curve, poor fit]"
3,O=C(CSc1nnc(-c2ccccc2)c(-c2ccccc2)n1)N1CCc2ccccc21,"inconclusive: 18.5 µM [inhibitor, single point]"
4,CN(CC(=O)N1CCCC1)S(=O)(=O)c1cccc(Cl)c1,"inconclusive: 0.165 µM [inhibitor, full curve, poor fit]"
5,CCC(C(=O)NC1CCCC1)N(C(=O)c1snc(C(N)=O)c1N)c1ccc(C)cc1C (configuration not stated),"inconclusive: 7.38 µM [inhibitor, partial curve]"
6,COc1ccc(CC(NC(C)=O)C(=O)NC2CCN(c3nc(C)cc(C)c3C#N)CC2)c(OC)c1 (configuration not stated),"inconclusive: 18.5 µM [inhibitor, single point]"
7,O=C1NC(=S)N/C1=C/C=C/c1ccccc1,"inconclusive: 10.4 µM [inhibitor, single point]"
8,O=C(NCc1ccco1)c1cccc(Nc2nc3ccc(Br)cc3[nH]2)c1,active: 13.1 µM
9,O=C(C[n+]1cc(-c2ccc(Cl)cc2)n2c1CCC2)Nc1nc(-c2ccc(F)cc2)cs1,"inconclusive: 9.28 µM [inhibitor, partial curve]"
10,Cc1ccc(-c2nnc(SCC(=O)CC(=O)Nc3ccccc3)n2C)cc1,"inconclusive: 10.4 µM [inhibitor, single point]"
11,C#CCNC(=O)C1=C[C@@H](C2CC2)[C@H](CCCO)[C@@H](OCC)O1,inactive
12,CCCCCn1c(N)c(-c2nc3ccccc3s2)c2c([N+](=O)[O-])nn(C)c(=O)c21,active: 5.22 µM
13,COc1cccc(CN2CCN(Cc3cc4ccccc4[nH]3)CC2CCO)c1 (configuration not stated),"inconclusive: 18.5 µM [inhibitor, single point]"
14,COc1ccc(CCn2c(NN=C3CCCCC3)nc3c2c(=O)[nH]c(=O)n3C)cc1,"inconclusive: 18.5 µM [inhibitor, single point]"
15,COc1ccccc1C(=O)ON=C1c2ccccc2-c2ccccc21,active: 1.65 µM
16,COc1ccc(C(O)c2nc3ccccc3n2C)cc1OC (configuration not stated),inactive
17,CC[C@@H](C)C(C(=O)N1CCN(C(=O)OC(C)(C)C)CC1)n1cc(-c2cn([C@@H](C)C(=O)N3CCN(C(=O)OC(C)(C)C)CC3)nn2)nn1 (some centres not stated),"inconclusive: 10.4 µM [inhibitor, partial curve]"
18,COc1ccc(-n2nc(C(=O)Nc3ccc(OC)c(OC)c3)c3c4ccccc4n(C)c3c2=O)cc1,"inconclusive: 14.7 µM [inhibitor, single point]"
19,C[C@H](NC(=O)C1CCN(S(=O)(=O)c2ccccc2)CC1)C(=O)NCc1ccco1,"inconclusive: 20.8 µM [inhibitor, partial curve, poor fit]"
20,NCCNCCNCCN,inactive
21,C/C(=N\NC(=O)c1cccs1)c1c(O)cc(C)oc1=O,"inconclusive: 1.47 µM [inhibitor, full curve]"
